Data taken from ChEMBL document CHEMBL3988442, “University of Dundee, Small-Polar-MMV Screening Library” (2021).

Mtb cholesterol medium: 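Whole-cell growth test on Mycobacterium tuberculosis, read after 4 days in a medium based on cholesterol and the lipid DPPC; the read-out is not stated. Concentration: 50 µM. Higher reads as more growth inhibition (inferred: compounds with an IC50 in retests scored well above the rest). Size under these conditions: about 69,000 compounds, about 370 of them at 50% or above in at least one test.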
Mtb glucose medium: 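Whole-cell growth test on Mycobacterium tuberculosis, read after 3 days in glucose-containing 7H9 medium; the read-out is not stated. Tested at 50 µM. Higher reads as more growth inhibition (inferred: compounds with an IC50 in retests scored well above the rest). About 69,000 compounds were tested under these conditions; 1.1% (about 760) showed 50% or more at least once.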

Values are the deposited “Percent Effect”, in %. How 0% and 100% were set is not recorded. Most values in the screen are low, and negative values occur. This is an unselected part of the compounds tested. Two or more numbers in one place are separate tests of the same structure; such repeats can differ widely.

| structure | Mtb cholesterol medium | Mtb glucose medium |
|---|---|---|
| `COc1ccc(C)cc1Nc1nc2c(C)nn(C)c2c(=O)n1C` | 21.55 | 16.97 |
| `Oc1cc(C2CCCCN2CC2CC2)nc(-c2ccncc2)n1` (stereo not given) | -13.55 | -11.75 |
| `Cc1cccnc1C(=O)N1CCCC(Cc2cncc3ccccc23)C1` (stereo not given) | -6.242 | -18.09 |
| `CCc1c(C)[nH]c(C(C)(C)N)nc1=O.Cl` | 11.76 | 21.06 |
| `CC(C)c1noc(C(C)Nc2nccc(CCC(F)(F)F)n2)n1` (stereo not given) | 33.64 | 12.14 |
| `CCc1nnc2n1CC(CNCC1CCCC1)CC2` (stereo not given) | -18.65 | -7.51 |
| `O=C(O)C(F)(F)F.O=C(O)C(F)(F)F.[H][C@@]12CN(Cc3csc(C)n3)CCO[C@]1([H])CN(Cc1cccs1)C2` | 1.346 | 6.256 |
| `CN(C)S(=O)(=O)NCc1cccnc1Oc1ccccc1F` | 4.976 | 44.42 |
| `Cc1cccc(C2(CNC(=O)c3ccnc(N(C)C)c3)CCOCC2)c1` | 19.34 & -13.3 | -4.623 |
| `Cc1cnc(C(=O)N(C)[C@@H]2CCC[C@@H](Oc3ccccc3)[C@@H]2O)cn1` | -9.856 | 22.23 |
| `O=C(NCC(O)c1ccccc1Cl)c1cccc(-n2cnnn2)c1` (stereo not given) | 16.45 | 1.834 & 12.43 |
| `OC1(CNC2CCN(c3ccccn3)CC2)CCc2ccccc21` (stereo not given) | -7.431 | -8.513 |
| `CC(C)CCN1CCC2(CC1)CN(C(=O)c1cnccn1)CCO2.O=C(O)C(F)(F)F` | 15.65 | 6.201 |
| `COCc1ccccc1CNC(=O)CNc1cccc(Cl)c1OC` | 3.545 | 14.78 |
| `CCc1ncc(C(=O)N2C[C@@H](C)O[C@@H](C)C2)cn1` | -13.55 | -18.53 |
| `O=C(O)C(F)(F)F.[H][C@@]12COC[C@]1([H])[C@@H](OCc1csc(C)n1)CN2C(=O)c1cccn1C` | -41.52 | -19.53 |
| `[H][C@@]12COC[C@]1([H])[C@@H](OC)CN2C(=O)c1ccc2c(c1)OCO2` | -20.83 | -7.278 & -39.13 |
| `Cl.Cn1ncc2c1CCCC2NCc1ccc(Br)s1` (stereo not given) | 12.32 | 4.561 |
| `Cc1nc(CC(=O)N2CCCN(c3ccc(F)cc3)CC2)cs1` | 4.559 | 14.78 |
| `CNC(=O)c1cn2cc(-c3ccccc3Cl)n(CC=C(C)C)c(=O)c2n1` | -14.86 | -7.235 & -2.398 |
| `CN(Cc1cn2c(n1)CN(C(=O)C1CCCO1)CC2)Cc1ccco1` (stereo not given) | -46.42 & -10.13 | -4.624 & 9.681 |
| `O=C(NCc1ccccn1)C1CN(c2nc3ccccc3s2)CCN1` (stereo not given) | -8.331 | -5.944 |
| `CN(Cc1ccon1)CC1CCOc2ccccc2C1` (stereo not given) | 25.66 | 22.7 |
| `[H][C@]12CCC(=O)N(C)[C@@]1(C)CCCCN2C(=O)CCn1nccc1C` | 12.34 | 28.42 |
| `CC(C)C[C@@H]1N[C@H](C(=O)NCC2CC2)Cc2c[nH]c3cccc1c23` | -6.383 | 8.278 & 11.58 |
| `COc1cc(CNCc2ccnc(N3CCOCC3)c2)cc(Cl)c1OC` | 16.58 | 17 |
| `Cc1nn(CC(C)C)c(N(C)C)c1CNCc1ccc(CO)c(F)c1` | 17.17 | 1.472 & 25.46 |
| `Cc1nn(C)c(C)c1C1CCCN1CC(=O)NCc1ccccn1` (stereo not given) | -5.698 | -7.594 |
| `CC(C)NC(=O)c1ccc(NC(=O)NC(C)c2ccccn2)cc1` (stereo not given) | -8.437 | 3.16 & 5.228 |
| `CCn1cc(S(=O)(=O)NC(=O)CCc2c[nH]c3ccccc23)cn1` | 10.27 | 10.21 |
| `CCc1ncc(C(=O)c2ccc(OC)cc2)n1C` | -16.79 | -3.555 & -24.76 |
| `Cc1ccc(C(=O)N2CCN(Cc3cccs3)CC2)c(=O)[nH]1` | -3.306 | -28.91 |
| `Cn1ncc2c1C(COCC1CC1)CN(Cc1ccc(F)cc1)C2` (stereo not given) | -17.16 | -7.467 |
| `O=C(NCc1nc2cc(F)ccc2[nH]1)c1ccc[nH]1` | -8.963 | 1.812 |
| `N#Cc1ccccc1C(=O)N1C[C@H](CO)C[C@H](CN2CCCC2)C1` | 4.368 | 5.136 |
| `Cc1ccc(F)c(N2CCCC(NS(=O)(=O)CCCF)C2=O)c1` (stereo not given) | 6.072 | -12.38 & -2.925 |
| `O=c1[nH]nc(-c2cccs2)c2sc(N3CCOCC3)nc12` | 14.23 | 13.11 |
| `CC(C)c1nnc2n1CCN(C(C)c1nnc(-c3cccs3)o1)C2` (stereo not given) | 1.037 | 29.98 |
| `Cn1cc(CN2CCCC23CCN(C(=O)c2ccncc2)CC3)cn1.O=C(O)C(F)(F)F` | -15.09 | -0.2465 |
| `CCc1nc(CN2CCCN(c3ncnc4ccccc34)CC2)no1` | -31.75 | -44.8 |
| `CCC(=O)N1CCCN(Cc2cc(F)cc(Br)c2)CC1` | 8 | 28.03 |
| `COc1ccccc1CNC(C)c1ccc2[nH]c(=O)[nH]c2c1` (stereo not given) | 5.397 | 2.872 & 21.97 |
| `[H][C@]12CN(Cc3cc(C)no3)CCN1C[C@H](c1ccccc1)[C@H]2C(=O)NC` | 4.809 | 6.292 |
| `CCC(C)c1noc(C2CCN(C(=O)c3cccs3)CC2)n1` (stereo not given) | -14.95 | -13.34 |
| `N#Cc1ccc(SCCCO)c(F)c1` | 1.591 | 10.3 |
| `CC1=Nc2c(c(=O)[nH]n2C2CCCC2)C(c2cccc(O)c2)S1` (stereo not given) | -12.09 | 6.525 |
| `Cc1[nH]ccc1C(=O)N1CCC(c2nnc(Cn3ccnc3)n2C)CC1` | -24.75 | -31.15 |
| `CCc1ccc(C2COCCN2C(=O)Nc2ccc(C(N)=O)c(Cl)c2)o1` (stereo not given) | -2.254 | 2.198 |
| `c1ccc2c(c1)CC(N1CCCC(NCc3cccc4nonc34)C1)C2` (stereo not given) | 8.495 | -13.6 |
| `O=C(O)C(F)(F)F.[H][C@@]12CCN(C3CCC3)C[C@]1(C(=O)N1CCOCC1)CCO2` | -1.426 | -0.2804 |
| `COc1ccccc1N1CCN(C(=O)c2ccoc2)CC1` | 7.35 | 20.41 |
| `CC(C)OCCN(C)CC(c1cccs1)N1CCOCC1` (stereo not given) | -43.12 | -29.37 & -6.69 |
| `CS(=O)(=O)N1CCCCC12CCN(C(=O)c1ccccc1)C2` (stereo not given) | 0.5683 & -8.022 | 3.538 & -11.55 |
| `O=C1NCCCCC1NC(=O)C1(c2cccc(C(F)(F)F)c2)CC1` (stereo not given) | 6.911 & -2.221 | 1.694 |
| `CC(C)(O)CN1CCN(C(=O)COC2CCCCC2)CC1` | -17.13 | 18.18 |
| `COCCc1noc(CN2CCCC2c2noc(C(C)C)n2)n1` (stereo not given) | -19.2 | 21.96 |
| `CN(Cc1nc(C2CC2)no1)C(=O)C1COc2ccccc2C1` (stereo not given) | 3.979 & 10.37 | 8.63 |
| `O=C(O)C(F)(F)F.[H][C@@]12CCN(C(=O)NC)CC[C@]1(C(=O)N1CCOCC1)CCN2C` | -15.28 | -9.469 |
| `CCC[C@@H]1CN(c2ncnc3ccsc23)C[C@H]1NS(C)(=O)=O` | 13.12 | 5.886 |
| `Cc1cnc(CCNC(=O)NCCOc2ncccc2Cl)s1` | 3.864 & 2.3 | 0.4585 |
| `CC(=O)Nc1nc(C(=O)NC(C)c2ccc(F)cc2)cs1` (stereo not given) | 2.56 | 23.52 |
| `COc1c(CNC2CCc3cc(C)ccc32)c(C)nn1C` (stereo not given) | -4.408 | 3.921 |
| `CC1(C)C(C(=O)NCCC2CN(Cc3c[nH]cn3)CCO2)C1(C)C` (stereo not given) | 5.482 | 18.26 |
| `[H][C@@]12CCN(C(=O)c3cc(C)c(C)s3)C[C@]1(c1nc(C)no1)CCO2` | 7.759 | 5.329 & -5.408 |
| `CCN(CC)CCNC(=O)c1cnc(C(C)(C)C)s1` | -18.66 | 1.149 |
| `F[C@@H]1CN(Cc2nccs2)C[C@@H]1OCc1nc2cnccc2[nH]1` | 8.226 | 0.1321 & 4.445 |
| `CCN(CC1CCOC1)C(=O)c1cc(F)ccc1N1CCN(C)CC1` (stereo not given) | -38.11 | -67.11 |
| `CCn1ccnc1CN1CCCN(C(=O)c2cccc(C#N)c2)CC1` | -0.2748 | -13.01 |
| `CC(Nc1cnn(C)c(=O)c1Cl)c1ccc(F)c(F)c1` (stereo not given) | -26.12 | -50.02 |
| `COCCNC(=O)N1CCN(C(C)C(=O)NC(C)C)CC1` (stereo not given) | 5.263 | 7.069 & 1.654 |
| `COc1cc(NC(=O)NCC2CCCO2)cc(OC)c1` (stereo not given) | -36.78 | -13.39 |
| `CCc1nnc2n1CC(CNCc1ccncc1)CC2` (stereo not given) | -29.09 | -10.29 & -4.974 |
| `CC(NC(=O)Cn1cccn1)c1ccc2c(c1)OCCCO2` (stereo not given) | -22.08 | -30.51 |
| `CCc1c(C)nc2cc(C3CCN(Cc4ccccc4F)C3)nn2c1O` (stereo not given) | -25.5 | 4.385 |
| `CC(=O)N1CCCC2(C1)CN(C(=O)c1ccncc1)CCO2` (stereo not given) | -7.472 & 7.465 | -19.19 |
| `Cn1ccnc1-c1ccc(NCc2cn3c(n2)SCC3)nn1` | -2.503 | 18.61 & -0.5138 |
| `O=C(NCCCNCC1CNc2ccnn2C1)c1ccccc1` (stereo not given) | -0.054 | -18.86 |
| `Cc1ccccc1OCCN1CCCC(c2cc(C(N)=O)[nH]n2)C1` (stereo not given) | -5.79 | 6.25 |
| `CCN1Cc2cc(F)ccc2N(C(=O)C2CCC2)CCC1=O` | -1.323 | 8.692 |
| `CCC1c2ccsc2CCN1C(=O)NCc1cc(C)on1` (stereo not given) | 0.4834 | -17.95 |
| `Cn1c(=O)oc2cc(Nc3nccnc3C#N)ccc21` | 2.451 | 4.031 |
| `Cc1[nH]n(-c2ccccc2)c2nnc(N)c1-2` | 1.435 | 5.696 & 0.3353 |
| `Cc1csc(CN(C)C(C)C(=O)N2CCc3ccccc3C2)n1` (stereo not given) | -6.297 | -3.593 & -1.51 |
| `CC(C)N1CCCCC1c1nc(N(C)C)ncc1I.Cl` (stereo not given) | 30.25 | 9.838 |
| `CCc1nsc(NC2CC(=O)N(C(C)(C)C)C2)n1` (stereo not given) | 18.3 | 20.91 |
| `[H][C@@]12C[C@H](NC(=O)C3CC3)CN1[C@H](CCC(=O)N(CC)CC)CNC2=O` | 4.037 | -20.65 & 1.902 |
| `[H][C@]12CN(C(=O)c3ccc(C)s3)C[C@@]1([H])OCCN(S(C)(=O)=O)C2` | 27.95 | 26.5 & 12.35 |
| `CN(CC(N)=O)C(=O)CCCn1ccc2cc(Cl)ccc21` | -7.892 | 12.33 & 8.458 |
| `CNc1oc(-c2cc(S(=O)(=O)N3CCCC3)c(C)o2)nc1C#N` | -20.45 | -8.996 |
| `CC(C)c1ccnc(N[C@H]2COC[C@@H]2N2CCCC2)n1` | 11.78 | -18.19 & 11.29 |
| `[H][C@@]12CC(COCc3ccncc3)C[C@@]1([H])N(C(=O)CN(C)C)CCO2` (stereo not given in full) | -25.49 | -5.911 |
| `O=C(O)C(F)(F)F.[H][C@@]12CN(CC3CCCCC3)C[C@]1([H])OCCN2c1ncc(F)cn1` | -24.58 | -4.535 |
| `Cc1nnc2n1CCN(Cc1csc(-c3ncccn3)n1)C2` | -55.72 | -35.44 & 1.186 |

Repeated from the top, 6 entries:

structure,Mtb cholesterol medium,Mtb glucose medium
COc1ccc(C)cc1Nc1nc2c(C)nn(C)c2c(=O)n1C,21.55,16.97
Oc1cc(C2CCCCN2CC2CC2)nc(-c2ccncc2)n1 (stereo not given),-13.55,-11.75
Cc1cccnc1C(=O)N1CCCC(Cc2cncc3ccccc23)C1 (stereo not given),-6.242,-18.09
CCc1c(C)[nH]c(C(C)(C)N)nc1=O.Cl,11.76,21.06
CC(C)c1noc(C(C)Nc2nccc(CCC(F)(F)F)n2)n1 (stereo not given),33.64,12.14
CCc1nnc2n1CC(CNCC1CCCC1)CC2 (stereo not given),-18.65,-7.51